Assay results: publication PMC7165181
No constants are given. Whether binding was seen depends on the method and setting. Binding seen in cells or lysates may run through a third protein. Some results given as binding are weak or reduced against the parent protein; the word gives no strength.

Protein sequences, listed by entry. Tags and fused reporters are not part of them. Lines headed by an entry give the natural chain unless they say otherwise; changes in a name come on top. Chains listed by the source or under a name are the forms on record and can include a tag or linker.
Flag-TNFRSF10B (short isoform) (O14763, form named): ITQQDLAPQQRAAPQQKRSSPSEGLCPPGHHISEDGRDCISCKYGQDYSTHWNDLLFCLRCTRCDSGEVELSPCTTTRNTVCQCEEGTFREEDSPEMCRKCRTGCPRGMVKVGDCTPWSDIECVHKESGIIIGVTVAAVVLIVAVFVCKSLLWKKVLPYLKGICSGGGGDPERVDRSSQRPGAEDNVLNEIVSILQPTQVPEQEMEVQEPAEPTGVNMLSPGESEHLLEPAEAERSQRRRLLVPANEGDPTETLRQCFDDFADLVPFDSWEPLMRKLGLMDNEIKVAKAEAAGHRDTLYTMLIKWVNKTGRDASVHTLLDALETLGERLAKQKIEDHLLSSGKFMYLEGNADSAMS
UniProt Q9BWQ6: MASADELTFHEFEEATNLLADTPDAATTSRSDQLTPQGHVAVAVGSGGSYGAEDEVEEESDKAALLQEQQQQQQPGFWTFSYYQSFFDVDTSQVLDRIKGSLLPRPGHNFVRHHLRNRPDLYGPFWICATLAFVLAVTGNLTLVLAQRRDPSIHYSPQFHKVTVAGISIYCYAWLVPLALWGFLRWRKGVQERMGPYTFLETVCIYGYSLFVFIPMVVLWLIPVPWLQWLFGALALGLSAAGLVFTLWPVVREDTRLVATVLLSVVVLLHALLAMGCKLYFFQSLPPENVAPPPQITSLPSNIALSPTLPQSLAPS

Biological target: Flag-TNFRSF10B (short isoform) (human) (UniProt O14763)
Experiment: co-IP; H1299 cells transfected with pcDNA3.1 or pcDNA3.1-Flag-TNFRSF10B (short isoform); lysis buffer 20 mM Tris-HCl pH 7.5, 150 mM NaCl, 0.5% Triton; IP with Flag antibody and protein A beads at 4 °C; western blot with Flag and YIPF2 antibodies

- binding: binds
Substance: endogenous YIPF2 (H1299 cells) (from UniProt Q9BWQ6 1-316)
